Reference: PubChem BioAssay AID1159578 (Peter MacCallum Cancer Centre, 2015)

Assay: 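Genome-wide hunt for genes controlling movement of lymphatic endothelial cells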 (primary screen)
Cells: human lymphatic endothelial cells
Reagent: siRNA pool against human genes, 40 nM
Duration: 48 h after transfection
Measured: 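Cells stained with dye and imaged after a scratch; covered wound area and nuclei counted, duplicates averaged, migration set against mock wells and turned into a robust z-score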
Scale: migration robust z-score: higher = faster migration into the scratch; migration relative to mock: higher = more scratch area covered than mock; nuclei per well: higher = more cells in the well
Call rule: 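Pools averaging fewer than 3300 nuclei are never called; remaining pools count as changed when migration robust z lies outside -2 to 2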
Calls: active = migration changed; inactive = no migration change, or too few cells
Here is a random part of about 18,000 reagents tested. About 1,030 of all reagents (5.7%) were called active. 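Inactive calls also include pools with fewer than 3300 nuclei, whose migration was not assessed.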 Raw values are not corrected between plates. Entries without a mark were called inactive.

Gene,migration robust z-score,migration class with cell-count check,migration relative to mock,"nuclei per well, duplicate mean"
TAAR8 (trace amine associated receptor 8),-0.05,migration z between -2 and 2; enough cells,0.8,6822
ELOC (elongin C),0.26,migration z between -2 and 2; enough cells,0.86,6199
EIF2AK1 (eukaryotic translation initiation factor 2 alpha kinase 1),0,migration z between -2 and 2; enough cells,0.8,5638
"ERCC2 (ERCC excision repair 2, TFIIH core complex helicase subunit)",0.73,migration z between -2 and 2; enough cells,0.94,5822
PADI4 (peptidyl arginine deiminase 4),0.26,migration z between -2 and 2; enough cells,0.86,5390
CREBRF (CREB3 regulatory factor),-0.56,migration z between -2 and 2; enough cells,0.74,5714
LRRC41 (leucine rich repeat containing 41),-1.32,migration z between -2 and 2; enough cells,0.54,6398
MDH1 (malate dehydrogenase 1),-2.73 (active),migration z below -2; enough cells,0.28,3512
"NFXL1 (nuclear transcription factor, X-box binding like 1)",1.32,migration z between -2 and 2; enough cells,1.23,5920
SIGMAR1 (sigma receptor chaperone 1),0.36,migration z between -2 and 2; enough cells,0.88,4890
KHDRBS2,-0.4,migration z between -2 and 2; enough cells,0.78,5490
MROH7 (maestro heat like repeat family member 7),1.11,migration z between -2 and 2; enough cells,1.18,6221
RGS17 (regulator of G protein signaling 17),-0.94,migration z between -2 and 2; enough cells,0.62,5440
SPATA1 (spermatogenesis associated 1),-0.3,migration z between -2 and 2; enough cells,0.8,5954
YJEFN3 (YjeF N-terminal domain containing 3),0.34,migration z between -2 and 2; enough cells,0.98,6372
OR10H3 (olfactory receptor family 10 subfamily H member 3),0.06,migration z between -2 and 2; enough cells,0.9,6186
FA2H (fatty acid 2-hydroxylase),-1.38,migration z between -2 and 2; enough cells,0.54,3972
ENPP2 (ectonucleotide pyrophosphatase/phosphodiesterase 2),0.31,migration z between -2 and 2; enough cells,0.86,5517
CRYGS (crystallin gamma S),0.96,migration z between -2 and 2; enough cells,1.14,6519
UTP11 (UTP11 small subunit processome component),-0.66,migration z between -2 and 2; enough cells,0.72,5978
CCDC8 (coiled-coil domain containing 8 subunit of 3M complex),-0.3,migration z between -2 and 2; enough cells,0.81,5691
ZC3H14 (zinc finger CCCH-type containing 14),1.25,migration z between -2 and 2; enough cells,1.21,5600
IDS (iduronate 2-sulfatase),-0.9,migration z between -2 and 2; enough cells,0.63,3585
NIBAN1 (niban apoptosis regulator 1),0.37,migration z between -2 and 2; enough cells,0.99,5014
TSHB (thyroid stimulating hormone subunit beta),-1.78,migration z between -2 and 2; enough cells,0.42,5978
SIDT1 (SID1 transmembrane family member 1),-0.66,migration z between -2 and 2; enough cells,0.72,5496
IGF2BP2-AS1 (IGF2BP2 antisense RNA 1),-0.48,migration z between -2 and 2; enough cells,0.76,7121
AP1M1 (adaptor related protein complex 1 subunit mu 1),-0.28,migration z between -2 and 2; enough cells,0.82,7297
HADHB,-1.04,migration z between -2 and 2; enough cells,0.6,3824
ARHGEF10L (Rho guanine nucleotide exchange factor 10 like),0.18,migration z between -2 and 2; enough cells,0.93,4541
IBSP (integrin binding sialoprotein),-1.01,under 3300 nuclei; migration not judged,0.61,2884
SLC32A1,0.6,migration z between -2 and 2; enough cells,1.04,5382
SPATA31A7 (SPATA31 subfamily A member 7),-0.21,migration z between -2 and 2; enough cells,0.84,6038
DNAJC5 (DnaJ heat shock protein family (Hsp40) member C5),1.24,migration z between -2 and 2; enough cells,1.21,5000
DSE (dermatan sulfate epimerase),0.69,migration z between -2 and 2; enough cells,1.06,7433
ZNF658B (zinc finger protein 658B (pseudogene)),1.72,migration z between -2 and 2; enough cells,1.33,4710
MOSPD1 (motile sperm domain containing 1),-0.23,migration z between -2 and 2; enough cells,0.83,5402
KRT15 (keratin 15),0.89,migration z between -2 and 2; enough cells,1.12,6186
TCF20 (transcription factor 20),-0.05,migration z between -2 and 2; enough cells,0.8,5901
MRPL15 (mitochondrial ribosomal protein L15),-1.44,migration z between -2 and 2; enough cells,0.52,5890
DALRD3 (DALR anticodon binding domain containing 3),-1.1,migration z between -2 and 2; enough cells,0.6,6108
IFI44 (interferon induced protein 44),0.64,migration z between -2 and 2; enough cells,1.05,6824
"RAB6D (RAB6D, member RAS oncogene family)",-0.51,migration z between -2 and 2; enough cells,0.75,5530
C1QA (complement C1q A chain),-3.49,under 3300 nuclei; migration not judged,-0.02,3243
PHF11 (PHD finger protein 11),0.55,migration z between -2 and 2; enough cells,0.91,6614
KRT9 (keratin 9),-0.44,migration z between -2 and 2; enough cells,0.77,5090
MRPL51 (mitochondrial ribosomal protein L51),0.93,migration z between -2 and 2; enough cells,1.12,6452
CDK10 (cyclin dependent kinase 10),-5.37,under 3300 nuclei; migration not judged,-0.23,1957
CCT6A (chaperonin containing TCP1 subunit 6A),-0.13,migration z between -2 and 2; enough cells,0.78,5524
CRIPT (CXXC repeat containing interactor of PDZ3 domain),-3.16 (active),migration z below -2; enough cells,0.06,4967
DNAJC13 (DnaJ heat shock protein family (Hsp40) member C13),1.52,migration z between -2 and 2; enough cells,1.28,6678
CLEC2D (C-type lectin domain family 2 member D),0.32,migration z between -2 and 2; enough cells,0.86,6015
MFRP (membrane frizzled-related protein),-0.02,migration z between -2 and 2; enough cells,0.88,5582
TFG (trafficking from ER to golgi regulator),0.06,migration z between -2 and 2; enough cells,0.9,5056
UTP15 (UTP15 small subunit processome component),-0.24,migration z between -2 and 2; enough cells,0.82,5246
KBTBD12 (kelch repeat and BTB domain containing 12),2.03 (active),migration z above 2; enough cells,1.41,5498
PARG (poly(ADP-ribose) glycohydrolase),-0.88,migration z between -2 and 2; enough cells,0.64,3576
